Entries after “also recorded” stand apart in the source; their conditions may differ. At least one peptide structure holds a part that was inferred or is arguable (an end, a ring closure or a residue). Some compounds share one wording; it may come from a single statement. Peptide text beside a SMILES is read from it.
System: Natural Killer Cell (NK)
Assay: 51Cr release assay of NK activity, PBMC effectors against K562 targets, in vitro
Format: cell-based, human
Settings: for effect on NK activity (51Cr release from K562): PBMC incubated with peptide 10^-14 to 10^-3 M for 15-30 min, 4 hours with K562; for concentration above which NK activity is decreased: FIGS. 1 and 2

| Compound | effect on NK activity (51Cr release from K562) | concentration above which NK activity is decreased (in vitro) | effect on NK activity (51Cr release from K562) (listed as Dynorphin A (1-10)) | inhibition of NK activity (even at concentrations as high as 1 mM, FIG. 3) | concentration above which NK activity is increased (in vitro, FIG. 3) |
| --- | --- | --- | --- | --- | --- |
| CC[C@H](C)[C@H](NC(=O)[C@H](CCCNC(=N)N)NC(=O)[C@H](CCCNC(=N)N)NC(=O)[C@H](CC(C)C)NC(=O)[C@H](Cc1ccccc1)NC(=O)CNC(=O)CNC(=O)[C@@H](N)Cc1ccc(O)cc1)C(=O)N[C@@H](CCCNC(=N)N)C(=O)N1CCC[C@H]1C(N)=O [dynorphin A (1-10) amide] (H-YGGFLRRIRP-NH2) | dose dependent suppression of NK-activity; also recorded: NK suppression was observed | above 100 μM |  |  |  |
| CC[C@H](C)[C@H](NC(=O)[C@H](CCCNC(=N)N)NC(=O)[C@H](CCCNC(=N)N)NC(=O)[C@H](CC(C)C)NC(=O)[C@H](Cc1ccccc1)NC(=O)CNC(=O)CNC(=O)[C@@H](N)Cc1ccc(O)cc1)C(=O)N[C@@H](CCCNC(=N)N)C(=O)N1CCC[C@H]1C(=O)O [dynorphin A (1-10)] (H-YGGFLRRIRP-OH) | absence of NK suppressing activity; also recorded: do not suppress NK activity |  | did not cause any significant change in NK activity | did not exhibit any inhibition of NK activity |  |
| CC[C@H](C)[C@H](NC(=O)[C@H](CCCNC(=N)N)NC(=O)[C@H](CCCNC(=N)N)NC(=O)[C@H](CC(C)C)NC(=O)[C@H](Cc1ccccc1)NC(=O)CNC(=O)CNC(=O)[C@@H](N)Cc1ccc(O)cc1)C(=O)N[C@@H](CCCNC(=N)N)C(=O)N1CCC[C@H]1C(=O)N[C@@H](CCCCN)C(=O)N[C@@H](CC(C)C)C(=O)N[C@@H](CCCCN)C(=O)O [dynorphin A (1-13)] | absence of NK suppressing activity; also recorded: do not suppress NK activity; also recorded: caused an increase in NK activity |  |  |  |  |
| CC[C@H](C)[C@H](NC(=O)[C@H](CCCNC(=N)N)NC(=O)[C@H](CCCNC(=N)N)NC(=O)[C@H](CC(C)C)NC(=O)[C@H](Cc1ccccc1)NC(=O)CNC(=O)CNC(=O)[C@@H](N)Cc1ccc(O)cc1)C(=O)N[C@@H](CCCNC(=N)N)C(=O)N1CCC[C@H]1C(=O)N[C@@H](CCCCN)C(=O)N[C@@H](CC(C)C)C(=O)N[C@@H](CCCCN)C(=O)N[C@@H](Cc1c[nH]c2ccccc12)C(=O)N[C@@H](CC(=O)O)C(=O)N[C@@H](CC(N)=O)C(=O)N[C@@H](CCC(N)=O)C(=O)O [dynorphin A (1-17)] | dose dependent suppression of NK-activity; also recorded: does suppress NK activity; also recorded: NK suppression was observed | above 0.1 μM |  |  |  |
| CC[C@H](C)[C@H](NC(=O)[C@H](CCCNC(=N)N)NC(=O)[C@H](CCCNC(=N)N)NC(=O)[C@H](CC(C)C)NC(=O)[C@H](Cc1ccccc1)NC(=O)CNC(=O)CN)C(=O)N[C@@H](CCCNC(=N)N)C(=O)N1CCC[C@H]1C(=O)N[C@@H](CCCCN)C(=O)N[C@@H](CC(C)C)C(=O)N[C@@H](CCCCN)C(=O)N[C@@H](Cc1c[nH]c2ccccc12)C(=O)N[C@@H](CC(=O)O)C(=O)N[C@@H](CC(N)=O)C(=O)N[C@@H](CCC(N)=O)C(=O)O [dynorphin A (2-17)] | absence of NK suppressing activity; also recorded: caused an increase in NK activity |  |  |  | above 1 μM |
